In paper PMC4686221 one finds binding data, which are given here for one substance.

Amino acid sequences for entries named in this document (tags omitted). A change or cut given only in a name is not applied to a line headed by its entry.
UniProt P48432: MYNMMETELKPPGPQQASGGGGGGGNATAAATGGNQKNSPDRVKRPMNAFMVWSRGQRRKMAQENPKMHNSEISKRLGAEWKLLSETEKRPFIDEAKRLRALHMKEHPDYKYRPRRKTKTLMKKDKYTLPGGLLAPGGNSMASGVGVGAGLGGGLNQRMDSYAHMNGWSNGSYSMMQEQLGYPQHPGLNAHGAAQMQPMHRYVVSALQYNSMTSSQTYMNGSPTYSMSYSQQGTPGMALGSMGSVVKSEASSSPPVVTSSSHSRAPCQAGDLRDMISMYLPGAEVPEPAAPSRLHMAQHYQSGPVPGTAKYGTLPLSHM
UniProt Q9UBL3: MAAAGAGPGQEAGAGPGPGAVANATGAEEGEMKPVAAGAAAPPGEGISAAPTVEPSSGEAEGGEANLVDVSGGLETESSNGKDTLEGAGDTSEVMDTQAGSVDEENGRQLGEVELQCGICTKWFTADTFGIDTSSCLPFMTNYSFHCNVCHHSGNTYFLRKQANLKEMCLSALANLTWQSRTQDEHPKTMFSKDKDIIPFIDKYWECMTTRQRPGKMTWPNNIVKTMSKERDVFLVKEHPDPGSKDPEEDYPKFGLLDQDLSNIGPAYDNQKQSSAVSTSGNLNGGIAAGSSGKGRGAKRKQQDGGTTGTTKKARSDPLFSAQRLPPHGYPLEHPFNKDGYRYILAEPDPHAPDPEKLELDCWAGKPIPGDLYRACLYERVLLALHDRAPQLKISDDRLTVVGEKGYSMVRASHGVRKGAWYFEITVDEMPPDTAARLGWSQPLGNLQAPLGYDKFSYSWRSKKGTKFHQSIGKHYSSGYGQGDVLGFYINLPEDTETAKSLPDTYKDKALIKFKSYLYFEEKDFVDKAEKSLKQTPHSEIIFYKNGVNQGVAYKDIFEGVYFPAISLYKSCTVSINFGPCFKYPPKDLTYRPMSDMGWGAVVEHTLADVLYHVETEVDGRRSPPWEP

The target of this assay is FLAG-HA-tagged Sox2 mutant missing the HMG domain (ΔHMG) (mouse) (UniProt P48432). Put plainly: co-IP; 293T cells transiently transfected with FLAG-HA-tagged Sox2 truncation mutants; anti-FLAG M2 resin, 4°C overnight, BC150 (150 mM KCl), 0.05% NP40; western blot of endogenous subunits. A general note: Immunoblotting shows a protein as a band on a membrane.

These are yes or no findings as the source states them, for the method shown. Binding seen in cells or lysates may run through a third protein.

Regarding “endogenous Ash2l (293 and 293T cells) (from UniProt Q9UBL3 1-628)”, the binding result is reported as “no binding”.
